Values of other authors in US11040008B2, “Pharmaceutical compositions of meloxicam” (Slayback Pharma LLC, priority 2018, dated 2021).
At least one read-out could not be matched to a standard name with certainty.

Details: oral, fasted steady state conditions

## Cc1cnc(NC(=O)C2=C(O)c3ccccc3S(=O)(=O)N2C)s1 [meloxicam, 4-hydroxy-2-methyl-N-(5-methyl-2-thiazolyl)-2H-1,2-benzothiazine-3-carboxamide-1,1-dioxide]
  Time at which mean Cmax is achieved: four to five
